Drawing on patent US20190330339A1 (published 2019), this text covers binding for one molecule.

The chains behind the UniProt entries cited, without tags or fusion partners. Where a name states a change or a piece, a line headed by the entry shows the natural chain unless it says otherwise.
UniProt Q15116: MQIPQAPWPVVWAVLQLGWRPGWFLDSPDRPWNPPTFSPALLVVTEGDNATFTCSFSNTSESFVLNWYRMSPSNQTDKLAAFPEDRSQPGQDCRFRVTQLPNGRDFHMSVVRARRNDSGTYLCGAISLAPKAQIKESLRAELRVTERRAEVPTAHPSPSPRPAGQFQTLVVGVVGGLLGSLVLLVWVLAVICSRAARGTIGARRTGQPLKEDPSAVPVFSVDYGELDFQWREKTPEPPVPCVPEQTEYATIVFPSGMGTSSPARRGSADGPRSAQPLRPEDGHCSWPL

These are yes or no findings as the source states them, for the method shown. Some binding calls cover weakened binding; strength is not graded here. Sequences can lack the tags named with a protein.

The target in this test is T1, human PD-1 expressed on cells (human, UniProt Q15116 25-288).
T1 construct: the transgene of the cell lines is not tied to it by name; also called hPD-1; CHO.hPD-1
Briefly: flow cytometry ligand competition on CHO cells over-expressing human PD-1. As for the experimental part: Ligand competition assays were performed on human PD-1 over-expressing CHO cells. A Nanobody dilution series was prepared in assay buffer: PBS/10% FBS/0.05% sodium azide. […] 2×10⁴ cells/well were seeded in V-bottom 96-well plates and resuspended in 200 μL/well of the Nanobody/ligand dilution. After 90 minutes incubation at 4° C., the cells were washed with 100 μL/well assay buffer and resuspended in 100 μL/well PE-labeled Goat anti-human IgG (Southern Biotech, 2043-09). Samples were incubated for 30 minutes at 4° C., washed, and resuspended in 100 μL/well of 5 nM TOPRO3 (LifeTechnologies, T3606) solution before analysis on FACS CANTO II (BD).

B1: F023701190 (1PD102C12 (E1D, L11V, A14P, W52aV, A74S, K83R, I89L, W100aF)-HIS6) (VHH, not shown: small tags and cut ends)
VHH: DVQLVESGGGVVQPGGSLRLSCAASGSIASIHAMGWFRQAPGKEREFVAVITVSGGITYYADSVKGRFTISRDNSKNTVYLQMNSLRPEDTALYYCAGDKHQSSFYDYWGQGTLVTVSS
Take B1: the binding entry is recorded as “binds”.
